PubChem BioAssay AID1259254 – NCATS – 2017
Screen: 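Genome-wide screen for genes that prevent DNA re-replication in cancer cells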 (primary screen). System: human HCT116 colorectal cancer cells. Reagents: single siRNA against human genes. Duration: 3 days. Measured: 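Imaged Hoechst DNA stain sorts each cell into a cycle phase by DNA amount; per plate, G2 fraction set to 0% for non-targeting and 100% for GMNN siRNA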. Direction: G2 robust z-score: higher = more G2 cells, more excess DNA replication. Active means: 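Active siRNAs have a G2 robust z of 5 or more median absolute deviations over the median, which in these data means about 38% or higher of GMNN control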.
Here is an unselected part of about 59,000 deposited reagents. About 1,550 of all reagents (2.6%) count as active. 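G2 share is only a proxy for re-replication; each gene was hit by three separate siRNAs, and active genes were retested.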 Reagents against one gene are numbered here. Not all columns of the deposit are shown. Not stated in the record: the amount of reagent.

Knock-down of BORCS5 (BLOC-1 related complex subunit 5) #1 gave: G2 robust z-score 1.54; inactive.
With knock-down of BORCS5 (BLOC-1 related complex subunit 5) #2, the screen gave G2 robust z-score 0.0446; inactive.
Against BORCS5 (BLOC-1 related complex subunit 5) #3, the values are G2 robust z-score -0.324; inactive.
METTL22 (methyltransferase 22, Kin17 lysine) #1 scored G2 robust z-score -0.923; inactive.
With knock-down of METTL22 (methyltransferase 22, Kin17 lysine) #2, the record shows G2 robust z-score -0.318; inactive.
Against METTL22 (methyltransferase 22, Kin17 lysine) #3 the deposit lists G2 robust z-score -0.0151; inactive.
TSPO2 (translocator protein 2) #1 scored G2 robust z-score -0.24; inactive.
After knock-down of TSPO2 (translocator protein 2) #2, the screen gave G2 robust z-score 0.197; inactive.
With knock-down of TSPO2 (translocator protein 2) #3, the record shows G2 robust z-score 1.53; inactive.
For LOC729324 (retired record) #1, the entry reads G2 robust z-score 1.34; inactive.
Against LOC729324 (retired record) #2, the entry reads G2 robust z-score 0.593; inactive.
Silencing of LOC729324 (retired record) #3 resulted in: G2 robust z-score 0.135; inactive.
For FAM117A (family with sequence similarity 117 member A) #1, the entry reads G2 robust z-score 1.99; inactive.
Silencing of FAM117A (family with sequence similarity 117 member A) #2 resulted in: G2 robust z-score -0.516; inactive.
Silencing of FAM117A (family with sequence similarity 117 member A) #3 resulted in: G2 robust z-score -0.397; inactive.

As entered above:
Entry for LOC729324 (retired record) #1 under “G2 robust z-score”: 1.34
Under “G2 robust z-score”, TSPO2 (translocator protein 2) #3 reads 1.53
Under “G2 robust z-score”, FAM117A (family with sequence similarity 117 member A) #3 has -0.397
Entry for FAM117A (family with sequence similarity 117 member A) #1 in “G2 robust z-score”: 1.99

Further results follow.
After knock-down of MROH1 (maestro heat like repeat family member 1) #1, the screen gave G2 robust z-score -0.383; inactive.
MROH1 (maestro heat like repeat family member 1) #2 gave G2 robust z-score 0.258; inactive.
MROH1 (maestro heat like repeat family member 1) #3 gave G2 robust z-score -0.549; inactive.
FBXL14 (F-box and leucine rich repeat protein 14) #1 showed G2 robust z-score 0.0778; inactive.
For FBXL14 (F-box and leucine rich repeat protein 14) #2, the entry reads G2 robust z-score -0.731; inactive.
FBXL14 (F-box and leucine rich repeat protein 14) #3 showed G2 robust z-score -0.475; inactive.
For ATP6AP1 (ATPase H+ transporting accessory protein 1) #1, the entry reads G2 robust z-score -0.502; inactive.
Knock-down of ATP6AP1 (ATPase H+ transporting accessory protein 1) #2 resulted in: G2 robust z-score 0.648; inactive.
With knock-down of ATP6AP1 (ATPase H+ transporting accessory protein 1) #3, the screen gave G2 robust z-score 0.0936; inactive.
